PubChem BioAssay AID743121, NCATS | 2013

Screen: 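Knock-downs that sensitise breast cancer cells to camptothecin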 (primary screen)
Cell system: MDA-MB-231 cells, a human breast cancer line
Knock-down reagent: single siRNA against human genes, 20 nM siRNA (0.8 pmol per well)
Time to read-out: 120 h (drug added 48 h after transfection, read 72 h later)
Treatment: camptothecin 20 nM (about EC30) for 72 h; vehicle 0.1% DMSO in parallel plates
Read-out: 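CellTiter-Glo ATP signal, scaled to control siRNA as percent viability; sensitisation given as log2 of untreated divided by camptothecin-treated viability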
Reading the numbers: log2 vehicle/camptothecin viability: higher = stronger sensitisation to camptothecin; viability with camptothecin and viability without drug: higher = more viable cells
Call rule: 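Each gene scored by redundant siRNA activity (RSA) over its individual siRNA ratios; a gene is called active at p < 0.001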
Here is an unselected part of about 26,000 deposited reagents. 167 of them (0.63%) were called active. 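Calls are per gene from RSA p-values that are not deposited; an individual active-marked siRNA can sensitise only weakly.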 The numbers tell different reagents against one gene apart.

no.	gene symbol	reagent	log2 vehicle/camptothecin viability	viability with camptothecin (% of control)	viability without drug (% of control)	Outcome
1	GFRA1 (GDNF family receptor alpha 1)	1	-0.146	66.9	60.5	inactive
2	GFRA1 (GDNF family receptor alpha 1)	2	1.33	28.9	72.5	inactive
3	GFRA1 (GDNF family receptor alpha 1)	3	0.0584	53.5	55.7	inactive
4	GFRA1 (GDNF family receptor alpha 1)	4	-0.501	32.5	22.9	inactive
5	PAOX (polyamine oxidase)	1	-0.254	103	86.2	inactive
6	PAOX (polyamine oxidase)	2	-0.528	66.8	46.3	inactive
7	PAOX (polyamine oxidase)	3	-0.111	94.3	87.4	inactive
8	MMP3 (matrix metallopeptidase 3)	1	0.113	97.7	106	inactive
9	MMP3 (matrix metallopeptidase 3)	2	-0.559	78.2	53	inactive
10	MMP3 (matrix metallopeptidase 3)	3	0.764	48.2	81.8	inactive
11	MMP3 (matrix metallopeptidase 3)	4	-0.27	78.5	65.1	inactive
12	TNFSF11 (TNF superfamily member 11)	1	0.5	79.3	112	inactive
13	TNFSF11 (TNF superfamily member 11)	2	-0.488	68.1	48.6	inactive
14	TNFSF11 (TNF superfamily member 11)	3	0.0653	106	110	inactive
15	TNFSF11 (TNF superfamily member 11)	4	-0.415	111	83.3	inactive
16	SMO (smoothened, frizzled class receptor)	1	-0.374	61	47	inactive
17	SMO (smoothened, frizzled class receptor)	2	-0.235	101	86.2	inactive
18	SMO (smoothened, frizzled class receptor)	3	0.103	47.9	51.4	inactive
19	SMO (smoothened, frizzled class receptor)	4	0.447	62.1	84.6	inactive
20	FEM1A (fem-1 homolog A)	1	-0.197	63.8	55.7	inactive
21	FEM1A (fem-1 homolog A)	2	-0.178	59.2	52.3	inactive
22	FEM1A (fem-1 homolog A)	3	-0.516	47	32.8	inactive
23	CENPU (centromere protein U)	1	0.436	106	144	inactive
24	CENPU (centromere protein U)	2	-0.0725	90.6	86.1	inactive
25	CENPU (centromere protein U)	3	-0.0516	115	111	inactive
26	RPL36 (ribosomal protein L36)	1	-0.174	42	37.2	inactive
27	RPL36 (ribosomal protein L36)	2	-0.42	7.1	5.3	inactive
28	RPL36 (ribosomal protein L36)	3	-0.827	15.9	8.98	inactive
29	RPL36 (ribosomal protein L36)	4	-0.382	35.4	27.2	inactive
30	TOP1P1 (DNA topoisomerase I pseudogene 1)	1	-0.481	86.6	62.1	inactive
31	TOP1P1 (DNA topoisomerase I pseudogene 1)	2	0.00251	48.4	48.4	inactive
32	TOP1P1 (DNA topoisomerase I pseudogene 1)	3	-0.255	96.9	81.2	inactive
33	TOP1P1 (DNA topoisomerase I pseudogene 1)	4	-0.00201	107	107	inactive

Looked up above.
SMO (smoothened, frizzled class receptor) #1, viability with camptothecin (% of control): 61
For “viability without drug (% of control)”, PAOX (polyamine oxidase) #3 shows 87.4
Value of GFRA1 (GDNF family receptor alpha 1) #4 in “viability without drug (% of control)”: 22.9
Entry for MMP3 (matrix metallopeptidase 3) #1 under “Outcome”: inactive
For “Outcome”, FEM1A (fem-1 homolog A) #2 has inactive
For “viability without drug (% of control)”, MMP3 (matrix metallopeptidase 3) #4 reads 65.1

Next reagents:
no.	gene symbol	reagent	log2 vehicle/camptothecin viability	viability with camptothecin (% of control)	viability without drug (% of control)	Outcome
34	CHRNB3 (cholinergic receptor nicotinic beta 3 subunit)	1	-0.0186	51.8	51.1	inactive
35	CHRNB3 (cholinergic receptor nicotinic beta 3 subunit)	2	-0.231	105	89.8	inactive
36	CHRNB3 (cholinergic receptor nicotinic beta 3 subunit)	3	-0.233	77.6	66.1	inactive
37	CHRNB3 (cholinergic receptor nicotinic beta 3 subunit)	4	-0.199	75	65.3	inactive
38	KLK12 (kallikrein related peptidase 12)	1	-0.239	65.2	55.2	inactive
39	KLK12 (kallikrein related peptidase 12)	2	0.0935	63.2	67.5	inactive
40	KLK12 (kallikrein related peptidase 12)	3	-0.229	44.8	38.2	inactive
41	KLK12 (kallikrein related peptidase 12)	4	0.183	64.1	72.7	inactive
42	ACVR1B (activin A receptor type 1B)	1	-0.154	59.7	53.6	inactive
43	ACVR1B (activin A receptor type 1B)	2	-0.0155	67.9	67.2	inactive
44	ACVR1B (activin A receptor type 1B)	3	0.0139	105	106	inactive
45	ACVR1B (activin A receptor type 1B)	4	-0.212	88.3	76.2	inactive
46	CDC42BPG (CDC42 binding protein kinase gamma)	1	-0.245	106	89.6	inactive
47	CDC42BPG (CDC42 binding protein kinase gamma)	2	0.0835	68	72.1	inactive
48	CDC42BPG (CDC42 binding protein kinase gamma)	3	-0.503	92.8	65.5	inactive
49	CDC42BPG (CDC42 binding protein kinase gamma)	4	-0.352	69.4	54.4	inactive
50	BRMS1 (BRMS1 transcriptional repressor and anoikis regulator)	1	-0.162	111	98.8	inactive
51	BRMS1 (BRMS1 transcriptional repressor and anoikis regulator)	2	-0.132	50.2	45.8	inactive
52	BRMS1 (BRMS1 transcriptional repressor and anoikis regulator)	3	0.00333	42.6	42.7	inactive
53	BRMS1 (BRMS1 transcriptional repressor and anoikis regulator)	4	-0.0976	46.1	43.1	inactive
54	BCL2L2 (BCL2 like 2)	1	-0.688	85.5	53.1	inactive
55	BCL2L2 (BCL2 like 2)	2	0.0897	93.7	99.7	inactive
56	BCL2L2 (BCL2 like 2)	3	0.132	79	86.6	inactive
57	BCL2L2 (BCL2 like 2)	4	0.356	43.2	55.3	inactive
58	FASN (fatty acid synthase)	1	0.393	21.3	28	inactive
59	FASN (fatty acid synthase)	2	-0.153	59.7	53.7	inactive
60	FASN (fatty acid synthase)	3	0.311	18.6	23.1	inactive
61	FASN (fatty acid synthase)	4	0.159	66.8	74.6	inactive
62	BCL3 (BCL3 transcription coactivator)	1	-0.0184	94.7	93.5	inactive
63	BCL3 (BCL3 transcription coactivator)	2	-0.0223	85.4	84.1	inactive
64	BCL3 (BCL3 transcription coactivator)	3	-0.264	83	69.1	inactive
65	BCL3 (BCL3 transcription coactivator)	4	-0.344	94.4	74.3	inactive
66	YY1 (YY1 transcription factor)	1	0.00299	16.7	16.7	inactive
67	YY1 (YY1 transcription factor)	2	-0.0566	98.1	94.3	inactive
68	YY1 (YY1 transcription factor)	3	0.183	66.1	75.1	inactive
69	YY1 (YY1 transcription factor)	4	0.137	60.6	66.7	inactive
70	NTHL1 (nth like DNA glycosylase 1)	1	-0.371	71	54.9	inactive
71	NTHL1 (nth like DNA glycosylase 1)	2	-0.443	47.6	35	inactive
72	NTHL1 (nth like DNA glycosylase 1)	3	-0.222	101	86.7	inactive
73	NTHL1 (nth like DNA glycosylase 1)	4	-0.891	68.3	36.8	inactive
74	CLEC4A (C-type lectin domain family 4 member A)	1	-0.212	112	97.1	inactive
75	CLEC4A (C-type lectin domain family 4 member A)	2	-0.00387	45.9	45.7	inactive
76	CLEC4A (C-type lectin domain family 4 member A)	3	-0.326	58.7	46.8	inactive
77	ADGRB2 (adhesion G protein-coupled receptor B2)	1	-0.28	69	56.8	inactive
78	ADGRB2 (adhesion G protein-coupled receptor B2)	2	-0.153	111	99.6	inactive
79	ADGRB2 (adhesion G protein-coupled receptor B2)	3	-0.0654	84.8	81	inactive
80	ADGRB2 (adhesion G protein-coupled receptor B2)	4	0.459	54.8	75.3	inactive
81	TBX3 (T-box transcription factor 3)	1	-0.361	96	74.7	inactive
82	TBX3 (T-box transcription factor 3)	2	0.0694	41.4	43.5	inactive
83	TBX3 (T-box transcription factor 3)	3	-0.371	36.7	28.4	inactive
84	TBX3 (T-box transcription factor 3)	4	-0.192	109	95.6	inactive
85	DECR1 (2,4-dienoyl-CoA reductase 1)	1	-0.0175	86	84.9	inactive
86	DECR1 (2,4-dienoyl-CoA reductase 1)	2	-0.128	62.7	57.4	inactive
87	DECR1 (2,4-dienoyl-CoA reductase 1)	3	-0.209	96.4	83.4	inactive
88	DECR1 (2,4-dienoyl-CoA reductase 1)	4	0.0536	75.6	78.4	inactive
